Measurements as given in patent US12053527B2, “Compositions with permeation enhancers for drug delivery” (priority 2015, dated 2024).

Assay: Pharmacokinetics in the OM model: ciprofloxacin in middle ear fluid and plasma
Assay type: in vivo, chinchilla
Conditions: blood obtained in the transverse sinus

## O=C(O)c1cn(C2CC2)c2cc(N3CCNCC3)c(F)cc2c1=O [ciprofloxacin]
  ciprofloxacin in plasma samples: undetectable
